Reference: PubChem BioAssay AID445 (National Center for Advancing Translational Sciences (NCATS), 2006)
This is one part of the list. Further columns of the screen follow, without active or inactive calls. Most of these compounds were active or inconclusive in the main read-out, so they are no random draw. The note in brackets gives the kind of curve behind each potency; many fits are weak.

Assay: IkB Signaling
Details: ABC-DLBCL IkBa-CBG/CBR dual luciferase ratio (green luciferase fused to IkBa over red control in OCI-Ly3 lymphoma cells), 4 h; measured here: control luc red channel unless noted
How it was run: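 Luminescence ratio of IκBα-fused green versus native red beetle luciferase in OCI-Ly3 cells, 4 h post-doxycycline with compound; red signal alone, scaled from basal (0%) to zero light (-100%), flagged nonspecific or cytotoxic effects.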

Question: For `COC(=O)c1sccc1S(=O)(=O)N(CC(=O)Nc1ccccc1)c1ccccc1`, which AC50 is on record?
Answer: 15.8 µM [falling, partial curve]

Question: With `Cc1cc(C(=O)NCc2ccccc2Cl)c2c(C)nn(-c3cccc(F)c3)c2n1` as the molecule, how does the AC50 read?
Answer: 3.98 µM [falling, partial curve]

Question: For `Cc1ccc2oc(=O)n(CCNC(=O)Nc3ccc(Cl)cc3)c2c1`, which AC50 is on record?
Answer: 15.8 µM [falling, partial curve]

Question: With `O=C(NCC(c1ccco1)S(=O)(=O)c1cccs1)c1ccc(Cl)cc1` (stereo not drawn) as the molecule, how does the AC50 read?
Answer: 0.126 µM [falling, partial curve, poor fit]

Question: Which AC50 does the source give for `CCCN(C(=O)Nc1cn(CC(C)C)c(=O)c2ccccc12)c1ccc(F)cc1` here?
Answer: 25.1 µM [falling, partial curve, poor fit]

Question: Which AC50 does the source give for `Cc1ccc(C(=O)Nc2ccc3oc(-c4ccccc4C)nc3c2)cc1` here?
Answer: 0.316 µM [falling, full curve, poor fit]

Question: For `CCCC(=O)c1ccc(N2CCN(C(=O)c3ccccc3)CC2)c(F)c1`, which AC50 is on record?
Answer: 12.6 µM [falling, partial curve]

Question: For `CCCCNC(=O)c1ccc2c(c1)NC(=O)C(CS(=O)(=O)Cc1ccc(C)cc1)N2` (stereo not drawn), which AC50 is on record?
Answer: 1 µM [rising, partial curve, poor fit]

Question: For `CCCCN(C)S(=O)(=O)c1ccc(C(=O)Nc2ccc(-c3nc4ccc(C)cc4s3)cc2)cc1`, which AC50 is on record?
Answer: 1.26 µM [rising, partial curve]

Question: With `Cc1cc(NC(=O)c2cccn2-c2nnc(N3CCCCC3)s2)ccc1Br` as the molecule, how does the AC50 read?
Answer: 10 µM [falling, partial curve, poor fit]

Question: With `CCC1CN(C(=O)Nc2cc(Cl)c(OC)cc2OC)c2ccccc2O1` (stereo not drawn) as the molecule, how does the AC50 read?
Answer: 2.51 µM [rising, partial curve]

Question: For `COc1cccc(NC(=O)c2oc3ccc(S(=O)(=O)N4CCCCCC4)cc3c2C)c1`, which AC50 is on record?
Answer: 10 µM [falling, partial curve]

Question: For `COc1ccccc1NC(=O)C1CCCN(c2ncnc3onc(-c4ccc(F)cc4)c23)C1` (stereo not drawn), which AC50 is on record?
Answer: 0.316 µM [falling, full curve, poor fit]

Question: With `Cc1ccc(NC(=O)c2ccc3snnc3c2)cc1C` as the molecule, how does the AC50 read?
Answer: 0.126 µM [rising, full curve]

Question: Which AC50 does the source give for `COc1cccc(NC(=O)C2CCN(S(=O)(=O)c3ccc4[nH]c5c(c4c3)CCCCC5)CC2)c1` here?
Answer: 31.6 µM [falling, single point]

Question: For `COC(=O)c1ccccc1NC(=O)c1nn(-c2ccc(OC)cc2)c(=O)c2c1c1ccccc1n2C`, which AC50 is on record?
Answer: 0.794 µM [rising, full curve, poor fit]

Question: Which AC50 does the source give for `Cc1cc(C)n(-c2nc(C)c(C)c(=O)n2CC(=O)Nc2cccc([N+](=O)[O-])c2)n1` here?
Answer: 3.98 µM [falling, partial curve]

Question: Which AC50 does the source give for `COc1ccc(OC)c(NC(=O)N2CC3CCCN3c3ccccc32)c1` (stereo not drawn) here?
Answer: 12.6 µM [falling, partial curve]

Question: Which AC50 does the source give for `CCOC(=O)c1cccc(NC(=O)N2CC=C(c3c[nH]c4ccccc34)CC2)c1` here?
Answer: 7.94 µM [falling, full curve]

Question: Which AC50 does the source give for `COCCNc1oc(-c2ccc(OC)cc2)nc1C#N` here?
Answer: 2.51 µM [rising, partial curve]

Question: With `COc1ccccc1N1CCN(Cc2nc(N)nc(Nc3ccc(C)c(Cl)c3)n2)CC1` as the molecule, how does the AC50 read?
Answer: 6.31 µM [falling, partial curve]

Question: Which AC50 does the source give for `Cc1cc(Nc2ccc(Br)c(C)c2)n2nc(-c3ccco3)nc2n1` here?
Answer: 10 µM [falling, partial curve]

Question: For `Cc1cc(C)n2nc(CNS(=O)(=O)c3ccccc3)nc2n1`, which AC50 is on record?
Answer: 39.8 µM [falling, single point]

Question: Which AC50 does the source give for `O=C(CSc1nnnn1-c1ccc2c(c1)OCCO2)Nc1nc2c(s1)CCCC2` here?
Answer: 10 µM [falling, partial curve]

Question: With `CCOC(=O)c1ccccc1NC(=O)COC(=O)CC(C)(C)CC1=NS(=O)(=O)c2ccccc2N1` as the molecule, how does the AC50 read?
Answer: 20 µM [falling, partial curve]

Question: With `Fc1cc(Br)ccc1Nc1nc2ccccc2n2nnnc12` as the molecule, how does the AC50 read?
Answer: 10 µM [falling, partial curve]

Question: With `Cc1cccc(Nc2nnc(-c3ccc(C)c(S(=O)(=O)N4CCN(C)CC4)c3)c3ccccc23)c1` as the molecule, how does the AC50 read?
Answer: 25.1 µM [falling, partial curve]

Question: For `Cc1ccc(Cl)cc1NC(=O)Cn1c(=O)n(C(C)C)c(=O)c2oc3ccccc3c21`, which AC50 is on record?
Answer: 1 µM [rising, full curve]

Question: With `Cc1nn2c(=O)cc(COC(=O)c3cccc(NC(=O)c4ccc(F)cc4)c3)nc2s1` as the molecule, how does the AC50 read?
Answer: 1 µM [falling, full curve]

Question: Which AC50 does the source give for `CCn1c(SCC(=O)N(C(C)C)C(C)C)nnc1-c1cc2ccccc2cc1O` here?
Answer: 6.31 µM [falling, partial curve]

Question: With `CC(C)CCNC(=O)C(=O)Nc1c2c(nn1-c1ccc(Cl)cc1)CSC2` as the molecule, how does the AC50 read?
Answer: 15.8 µM [rising, partial curve]

Question: With `COC(=O)c1c(NC(=O)c2ccco2)sc(C(=O)N2CCCC2)c1C` as the molecule, how does the AC50 read?
Answer: 5.01 µM [falling, partial curve]

Question: With `Cc1ccc(-n2nc(-c3ccccc3)c3cnc4cc5c(cc4c32)OCO5)cc1C` as the molecule, how does the AC50 read?
Answer: 20 µM [rising, partial curve]

Question: For `CC(=O)Nc1cccc(NC(=O)CSc2ccc(-c3sc(-c4ccccc4)nc3C)nn2)c1`, which AC50 is on record?
Answer: 3.16 µM [falling, full curve]

Question: With `O=C(O)CCc1ccc(-c2ccccc2)n1-c1ccc(C(=O)O)cc1` as the molecule, how does the AC50 read?
Answer: 31.6 µM [falling, partial curve]

Question: Which AC50 does the source give for `COc1cc(-c2nc(-c3ccc(NC(=O)c4ccc5c(c4)OCO5)cc3)no2)cc(OC)c1OC` here?
Answer: 7.94 µM [falling, partial curve]

Question: With `COc1ccc(OC)c(NC(=O)CC(=O)Nc2ccc3nc4n(c(=O)c3c2)CCCCC4)c1` as the molecule, how does the AC50 read?
Answer: 12.6 µM [falling, partial curve]

Question: For `CCOc1ccccc1C(=O)N1CCC(c2nc3ccccc3o2)CC1`, which AC50 is on record?
Answer: 31.6 µM [falling, single point]

Question: With `Cc1ccc(C2CCN(C(=O)c3cnn(-c4ccc(C)c(C)c4)c3C3CCN(C(=O)OC(C)(C)C)CC3)C2)cc1` (stereo not drawn) as the molecule, how does the AC50 read?
Answer: 25.1 µM [falling, partial curve]

Question: Which AC50 does the source give for `Cc1[nH]c2ccccc2c1NC(=O)CN1CCN(c2cccc(C(F)(F)F)c2)CC1` here?
Answer: 15.8 µM [falling, partial curve]

Question: Which AC50 does the source give for `CCOC(=O)SC1=N/C(=C\c2ccc(N(C)C)cc2)C(=O)S1` here?
Answer: 39.8 µM [falling, single point]

Question: With `COc1cccc(NC(=O)CSc2c3c(nc4ccccc24)CCCC3)c1` as the molecule, how does the AC50 read?
Answer: 5.01 µM [falling, partial curve]

Question: For `COc1ccc(-c2cc3nc(C)c(CCC(=O)NC(C)c4ccccc4)c(C)n3n2)c(OC)c1` (stereo not drawn), which AC50 is on record?
Answer: 0.794 µM [falling, full curve]

Question: Which AC50 does the source give for `COc1ccc(-c2noc(CN(C)S(=O)(=O)c3ccc(C)cc3)n2)cc1` here?
Answer: 12.6 µM [falling, partial curve]

Question: For `Cc1nn(C(=O)c2cccc([N+](=O)[O-])c2C)c(C)c1S(=O)(=O)N1CCCCCC1`, which AC50 is on record?
Answer: 6.31 µM [falling, full curve]

Question: For `CCOC(=O)c1cccc(NC(=O)CN(c2ccc(C)cc2)S(=O)(=O)c2c(C)noc2C)c1`, which AC50 is on record?
Answer: 3.98 µM [falling, partial curve]

Question: For `COc1ccc(NC(=O)c2ccco2)cc1NC(=O)c1ccc(C#N)cc1F`, which AC50 is on record?
Answer: 2 µM [rising, full curve]

Question: With `COc1ccccc1-c1cc(C(=O)N2CCN(c3ccc(F)cc3)CC2)no1` as the molecule, how does the AC50 read?
Answer: 0.2 µM [falling, full curve]

Question: For `Cc1c(C(=O)Nc2ccc(F)c(Cl)c2)sc2nc3n(c(=O)c12)CCC3`, which AC50 is on record?
Answer: 25.1 µM [falling, single point]

Question: With `O=C(NCc1ccco1)Nc1cccs1` as the molecule, how does the AC50 read?
Answer: 31.6 µM [rising, partial curve] [measured here: IkB-luc green channel]

Question: For `O=C(NCCc1ccccc1)C1CCN(c2nc3ccccc3nc2C(F)(F)F)CC1`, which AC50 is on record?
Answer: 6.31 µM [rising, partial curve]

Question: Which AC50 does the source give for `COc1ccccc1N1CCN(c2ncnc3c2cnn3-c2ccc(C)cc2)CC1` here?
Answer: 3.16 µM [falling, partial curve]

Question: For `FC(F)(F)c1cc(Nc2nc3ccccc3c3nncn23)ccc1Cl`, which AC50 is on record?
Answer: 39.8 µM [falling, single point]

Question: Which AC50 does the source give for `CCCCCSc1nnc2c(n1)[nH]c1c(C)cccc12` here?
Answer: 0.0631 µM [rising, full curve]

Question: With `CCCNC(=O)c1cnn(-c2ccc(C)c(C)c2)c1C1CCN(C(=O)OC(C)(C)C)CC1` as the molecule, how does the AC50 read?
Answer: 31.6 µM [falling, partial curve]

Question: Which AC50 does the source give for `Cc1cccc(CN2CCN(CC(=O)NCCc3ccc(Cl)cc3)C2=O)c1` here?
Answer: 10 µM [falling, partial curve]

Question: For `Cn1nnnc1Sc1ncnc2scc(-c3ccccc3)c12`, which AC50 is on record?
Answer: 7.94 µM [falling, partial curve]

Question: Which AC50 does the source give for `CCOC(=O)N1CCC2(CC1)C(C#N)=C(N)Oc1c2c(C)nn1-c1cccc(Cl)c1` here?
Answer: 12.6 µM [falling, partial curve]

Question: For `COc1ccc(Cl)cc1NC(=O)CSc1nc2c(oc3ccccc32)c(=O)n1Cc1ccco1`, which AC50 is on record?
Answer: 2 µM [rising, partial curve]

Question: Which AC50 does the source give for `CCOC(=O)c1ccccc1NC(=O)CN1C(=O)CC(c2ccccc2)Sc2ccccc21` (stereo not drawn) here?
Answer: 0.158 µM [falling, full curve]

Question: Which AC50 does the source give for `CCOc1cc2c(cc1OCC)C(CC(=O)O)N(C(=O)Nc1ccc(Br)c(C)c1)CC2` (stereo not drawn) here?
Answer: 20 µM [falling, partial curve]

Question: With `C=CCSc1nnc(CSc2nc3sc4c(c3c(=O)[nH]2)CCCC4)n1-c1ccccc1` as the molecule, how does the AC50 read?
Answer: 20 µM [falling, partial curve]

Question: Which AC50 does the source give for `CCOc1ccc(N(Cc2ccccc2)C(=O)c2nc(SC)ncc2Cl)cc1` here?
Answer: 12.6 µM [falling, partial curve]
